Source: paper doi:10.1101/2021.09.14.460382
Results are given in words; binding and its absence hold for the method and conditions named. Binding seen in cells or lysates may run through a third protein. Some entries that bind do so weakly or less than the wild type.

Molecular target: T1, Mdm2 (zebrafish (endogenous in zebrafish embryos)) (UniProt O42354)
T1 sequence: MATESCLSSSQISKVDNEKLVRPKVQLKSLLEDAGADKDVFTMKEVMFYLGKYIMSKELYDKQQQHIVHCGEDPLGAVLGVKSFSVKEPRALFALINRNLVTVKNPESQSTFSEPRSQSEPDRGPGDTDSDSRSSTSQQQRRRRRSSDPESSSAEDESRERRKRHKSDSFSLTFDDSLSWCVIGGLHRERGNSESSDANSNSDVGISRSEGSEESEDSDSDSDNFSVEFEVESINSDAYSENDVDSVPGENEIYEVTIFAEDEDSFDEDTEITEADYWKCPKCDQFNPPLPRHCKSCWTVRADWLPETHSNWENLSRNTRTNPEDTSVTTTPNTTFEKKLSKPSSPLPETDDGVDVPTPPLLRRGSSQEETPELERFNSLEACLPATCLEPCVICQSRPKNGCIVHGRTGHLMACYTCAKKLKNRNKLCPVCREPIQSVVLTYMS
Assay: co-IP

binding: binds
B1: p53 protein (protein, UniProt P79734 1-373)
chain: MAQNDSQEFAELWEKNLIIQPPGGGSCWDIINDEEYLPGSFDPNFFENVLEEQPQPSTLPPTSTVPETSDYPGDHGFRLRFPQSGTAKSVTCTYSPDLNKLFCQLAKTCPVQMVVDVAPPQGSVVRATAIYKKSEHVAEVVRRCPHHERTPDGDNLAPAGHLIRVEGNQRANYREDNITLRHSVFVPYEAPQLGAEWTTVLLNYMCNSSCMGGMNRRPILTIITLETQEGQLLGRRSFEVRVCACPGRDRKTEESNFKKDQETKTMAKTTTGTKRSLVKESSSATLRPEGSKKAKGSSSDEEIFTLQVRGRERYEILKKLNDSLELSDVVPASDAEKYRQKFMTKNKKENRESSEPKQGKKLMVKDEGRSDSD
